Measured values: patent US20200168293A1 (UCB, published 2020)
No constants are given. Whether binding was seen depends on the method and setting. Some binding calls cover weakened binding; strength is not graded here.

Chains of the proteins cited; added tags and fusions are not shown. Lines headed by an entry give the natural chain unless they say otherwise; changes in a name come on top.
UniProt Q14145: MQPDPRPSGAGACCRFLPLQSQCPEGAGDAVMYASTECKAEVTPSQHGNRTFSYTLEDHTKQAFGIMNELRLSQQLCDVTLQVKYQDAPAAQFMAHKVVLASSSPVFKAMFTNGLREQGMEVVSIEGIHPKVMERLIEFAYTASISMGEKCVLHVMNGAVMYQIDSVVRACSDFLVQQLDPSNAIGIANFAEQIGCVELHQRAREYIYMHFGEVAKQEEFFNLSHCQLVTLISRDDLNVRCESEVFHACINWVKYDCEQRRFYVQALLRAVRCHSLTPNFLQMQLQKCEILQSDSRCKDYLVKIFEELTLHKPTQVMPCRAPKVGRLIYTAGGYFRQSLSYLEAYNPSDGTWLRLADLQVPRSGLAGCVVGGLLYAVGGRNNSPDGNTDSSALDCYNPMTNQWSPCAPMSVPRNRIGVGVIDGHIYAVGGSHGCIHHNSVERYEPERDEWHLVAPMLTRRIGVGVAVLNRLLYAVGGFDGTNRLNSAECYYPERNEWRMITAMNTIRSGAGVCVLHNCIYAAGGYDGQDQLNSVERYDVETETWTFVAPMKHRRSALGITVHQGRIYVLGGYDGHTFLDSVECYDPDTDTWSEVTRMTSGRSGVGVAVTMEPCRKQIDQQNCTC

Experiments:
[1] = target: Keap1 (Kelch 1-6 domains, AA 314-611) (Homo sapiens (Human)) (UniProt Q14145); assay: SPR competition, Nrf2 peptide titrated against constant Keap1 over captured G54.1 or G85 Fab
[2] = target: Keap1 (Kelch 1-6 domains, AA 314-611) (Homo sapiens (Human)) (UniProt Q14145); assay: SPR competition: Nrf2 peptide titrated (0-3162 nM) against 100 nM Keap1, binding to captured Fab G85 is blocked
[3] = target: Keap1 (Kelch 1-6 domains, AA 314-611) (Homo sapiens (Human)) (UniProt Q14145); assay: SPR competition: Nrf2 peptide titrated (0-1000 nM) against 100 nM Keap1, binding to captured Fab G54.1 is blocked

Measured: binding

LQLDEETGEFLPIQ (N-terminal biotin-PEG; C-terminal amide) [Nrf2 peptide analogue biotin-PEG-…-amide]
binds: all assays above
